No constants are given. Whether binding was seen depends on the method and setting. For some assays here: Binding seen in cells or lysates may run through a third protein. Some entries that bind do so weakly or less than the wild type. For some assays here: Sequences can lack the tags named with a protein.
T1: GAL4BD-CB (full-length human collybistin fused to the GAL4 DNA-binding domain) (human) (UniProt O43307)
T1 sequence: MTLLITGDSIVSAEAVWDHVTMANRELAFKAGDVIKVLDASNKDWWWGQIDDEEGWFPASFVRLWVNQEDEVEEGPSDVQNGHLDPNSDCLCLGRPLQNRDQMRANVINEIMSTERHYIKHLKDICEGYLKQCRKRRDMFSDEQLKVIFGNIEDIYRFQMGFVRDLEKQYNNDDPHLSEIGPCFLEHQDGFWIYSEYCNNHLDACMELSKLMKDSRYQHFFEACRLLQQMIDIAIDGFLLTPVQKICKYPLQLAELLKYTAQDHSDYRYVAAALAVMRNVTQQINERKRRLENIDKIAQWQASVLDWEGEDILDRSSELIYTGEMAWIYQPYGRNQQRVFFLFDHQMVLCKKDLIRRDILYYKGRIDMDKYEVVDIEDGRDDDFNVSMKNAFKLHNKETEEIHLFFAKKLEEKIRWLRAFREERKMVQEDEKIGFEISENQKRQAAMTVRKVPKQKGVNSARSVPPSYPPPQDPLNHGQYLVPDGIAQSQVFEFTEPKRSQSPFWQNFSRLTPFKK

By UniProt entry, the sequences of proteins in these tests, tags left out.
UniProt Q8JZQ9: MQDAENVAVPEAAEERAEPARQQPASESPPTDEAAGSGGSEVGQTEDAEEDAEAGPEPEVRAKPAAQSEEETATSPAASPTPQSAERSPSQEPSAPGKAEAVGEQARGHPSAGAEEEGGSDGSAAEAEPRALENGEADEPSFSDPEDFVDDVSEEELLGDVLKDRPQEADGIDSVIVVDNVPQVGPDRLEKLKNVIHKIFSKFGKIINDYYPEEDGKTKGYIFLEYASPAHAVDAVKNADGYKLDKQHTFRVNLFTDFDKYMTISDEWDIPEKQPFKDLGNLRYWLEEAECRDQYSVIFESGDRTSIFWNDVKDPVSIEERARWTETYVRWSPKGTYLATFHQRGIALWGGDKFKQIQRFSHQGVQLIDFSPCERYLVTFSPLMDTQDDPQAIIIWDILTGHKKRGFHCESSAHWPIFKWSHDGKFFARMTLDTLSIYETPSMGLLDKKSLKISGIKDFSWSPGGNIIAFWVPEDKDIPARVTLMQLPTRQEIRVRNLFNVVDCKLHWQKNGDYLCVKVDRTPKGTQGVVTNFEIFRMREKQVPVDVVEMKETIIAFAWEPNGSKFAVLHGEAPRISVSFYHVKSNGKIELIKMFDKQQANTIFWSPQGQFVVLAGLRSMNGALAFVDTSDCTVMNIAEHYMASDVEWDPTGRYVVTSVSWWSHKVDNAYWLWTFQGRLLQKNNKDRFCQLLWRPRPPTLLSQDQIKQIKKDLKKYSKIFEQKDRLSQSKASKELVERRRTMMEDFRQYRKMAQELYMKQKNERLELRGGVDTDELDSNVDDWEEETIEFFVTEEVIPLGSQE
UniProt Q91WK2: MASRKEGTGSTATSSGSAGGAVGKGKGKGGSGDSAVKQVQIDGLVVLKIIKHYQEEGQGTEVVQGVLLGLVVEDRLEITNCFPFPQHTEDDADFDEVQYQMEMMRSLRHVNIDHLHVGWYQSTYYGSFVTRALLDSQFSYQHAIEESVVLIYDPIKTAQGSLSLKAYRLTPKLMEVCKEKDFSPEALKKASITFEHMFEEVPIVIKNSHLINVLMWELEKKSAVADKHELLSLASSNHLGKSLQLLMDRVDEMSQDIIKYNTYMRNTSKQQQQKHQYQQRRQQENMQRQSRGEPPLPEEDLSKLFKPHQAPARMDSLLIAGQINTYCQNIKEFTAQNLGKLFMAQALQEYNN

T2: GAL4BD-CB_(SH3-) (human collybistin lacking the N-terminal SH3 domain fused to the GAL4 DNA-binding domain) (human) (UniProt O43307)
T2 sequence: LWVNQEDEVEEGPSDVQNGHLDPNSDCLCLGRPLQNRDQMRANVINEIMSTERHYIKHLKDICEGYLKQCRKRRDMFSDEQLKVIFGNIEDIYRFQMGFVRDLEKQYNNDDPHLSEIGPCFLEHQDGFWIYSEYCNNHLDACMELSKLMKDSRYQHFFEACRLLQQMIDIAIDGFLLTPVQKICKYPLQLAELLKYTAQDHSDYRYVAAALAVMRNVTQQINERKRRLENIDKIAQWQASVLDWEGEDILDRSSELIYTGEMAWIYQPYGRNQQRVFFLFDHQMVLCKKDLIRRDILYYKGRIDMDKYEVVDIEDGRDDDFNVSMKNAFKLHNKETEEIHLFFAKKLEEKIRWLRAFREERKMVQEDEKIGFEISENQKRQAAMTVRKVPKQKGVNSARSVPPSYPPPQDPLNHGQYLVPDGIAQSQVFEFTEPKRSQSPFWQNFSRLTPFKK

T3: Flag-gephyrin (N-terminally Flag-tagged full-length human gephyrin) (human) (UniProt Q9NQX3)
T3 sequence: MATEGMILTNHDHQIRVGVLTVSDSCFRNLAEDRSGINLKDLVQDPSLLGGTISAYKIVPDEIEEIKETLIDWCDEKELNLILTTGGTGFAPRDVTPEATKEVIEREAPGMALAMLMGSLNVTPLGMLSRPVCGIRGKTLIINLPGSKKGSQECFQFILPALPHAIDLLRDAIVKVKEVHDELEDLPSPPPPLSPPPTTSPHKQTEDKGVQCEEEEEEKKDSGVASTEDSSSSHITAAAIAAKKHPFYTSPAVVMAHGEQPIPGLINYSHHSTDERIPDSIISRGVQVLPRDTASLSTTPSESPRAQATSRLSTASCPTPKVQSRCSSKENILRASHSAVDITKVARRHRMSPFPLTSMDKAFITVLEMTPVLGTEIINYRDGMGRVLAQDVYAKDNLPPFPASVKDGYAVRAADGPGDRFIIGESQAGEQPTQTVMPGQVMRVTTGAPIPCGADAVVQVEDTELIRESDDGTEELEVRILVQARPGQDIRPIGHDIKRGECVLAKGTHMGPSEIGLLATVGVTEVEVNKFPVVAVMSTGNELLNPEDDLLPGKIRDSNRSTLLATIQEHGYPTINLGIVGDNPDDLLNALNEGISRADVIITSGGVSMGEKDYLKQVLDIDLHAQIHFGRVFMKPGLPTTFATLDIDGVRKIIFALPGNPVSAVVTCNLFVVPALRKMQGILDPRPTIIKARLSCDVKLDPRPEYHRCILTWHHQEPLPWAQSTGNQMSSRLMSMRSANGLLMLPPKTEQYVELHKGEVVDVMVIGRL

T4: Flag-CB (N-terminally Flag-tagged full-length human collybistin) (human) (UniProt O43307)
T4 sequence: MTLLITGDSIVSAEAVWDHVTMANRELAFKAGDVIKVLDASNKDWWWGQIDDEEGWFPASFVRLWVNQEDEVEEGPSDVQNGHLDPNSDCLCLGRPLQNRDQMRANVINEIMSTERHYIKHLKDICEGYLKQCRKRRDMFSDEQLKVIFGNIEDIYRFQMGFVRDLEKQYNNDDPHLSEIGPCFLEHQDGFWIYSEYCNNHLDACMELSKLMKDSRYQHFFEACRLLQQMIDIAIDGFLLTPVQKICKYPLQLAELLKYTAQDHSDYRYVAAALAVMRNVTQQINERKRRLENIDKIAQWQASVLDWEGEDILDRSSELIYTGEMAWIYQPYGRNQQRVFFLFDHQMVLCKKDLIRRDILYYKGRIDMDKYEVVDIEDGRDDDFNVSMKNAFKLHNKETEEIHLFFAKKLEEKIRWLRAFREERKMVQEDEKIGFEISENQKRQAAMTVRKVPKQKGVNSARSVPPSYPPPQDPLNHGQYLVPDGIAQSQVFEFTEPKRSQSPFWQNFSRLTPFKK


Experiments:
[1] = molecular target: endogenous eIF3B of mouse brain (mouse (endogenous in mouse brain)) (UniProt Q8JZQ9); assay: co-IP; adult mouse whole brain lysate in RIPA buffer; IP of endogenous proteins with anti-eIF3H or anti-eIF3B antibodies, blot with anti-CB or anti-gephyrin antibodies
[2] = molecular target: endogenous eIF3H of mouse brain (mouse (endogenous in mouse brain)) (UniProt Q91WK2); assay: as above
[3] = molecular target: T1, GAL4BD-CB (full-length human collybistin fused to the GAL4 DNA-binding domain) (human); assay: two-hybrid; Matchmaker GAL4 system 3; GAL4BD baits in pGBKT7, GAL4AD preys; yeast AH109; growth on SD/-Leu/-Trp/-Ade/-His/X-alpha-Gal/5 mM 3-AT, 30°C; library screen and retest by cotransformation
[4] = molecular target: T2, GAL4BD-CB_(SH3-) (human collybistin lacking the N-terminal SH3 domain fused to the GAL4 DNA-binding domain) (human); assay: as above
[5] = molecular target: T3, Flag-gephyrin (N-terminally Flag-tagged full-length human gephyrin) (human); assay: co-IP; HEK 293T cells cotransfected with Flag- and Myc-tagged proteins; lysis and washes in RIPA buffer; IP with anti-Flag antibody, blot with anti-Myc antibody
[6] = molecular target: T4, Flag-CB (N-terminally Flag-tagged full-length human collybistin) (human); assay: as above

Row | Binder | binding [1] | binding [2] | also measured
1 | endogenous gephyrin of mouse brain (protein, UniProt Q8BUV3 1-769) MATEGMILTNHDHQIRVGVLTVSDSCFRNLAEDRSGINLKDLVQDPSLLGGTISAYKIVPDEIEEIKETLIDWCDEKELNLILTTGGTGFAPRDVTPEATKEVIEREAPGMALAMLMGSLNVTPLGMLSRPVCGIRGKTLIINLPGSKKGSQECFQFILPALPHAIDLLRDAIVKVKEVHDELEDLPSPPPPLSPPPTTSPHKQTEDKGVQCEEEEEEKKDSGVASTEDSSSSHITAAALAAKIPDSIISRGVQVLPRDTASLSTTPSESPRAQATSRLSTASCPTPKQIRRPDESKGVASRVGSLKARLPSCSSTYSVSEVQSRCSSKENILRASHSAVDITKVARRHRMSPFPLTSMDKAFITVLEMTPVLGTEIINYRDGMGRVLAQDVYAKDNLPPFPASVKDGYAVRAADGPGDRFIIGESQAGEQPTQTVMPGQVMRVTTGAPIPCGADAVVQVEDTELIRESDDGTEELEVRILVQARPGQDIRPIGHDIKRGECVLAKGTHMGPSEIGLLATVGVTEVEVNKFPVVAVMSTGNELLNPEDDLLPGKIRDSNRSTLLATIQEHGYPTINLGIVGDNPDDLLNALNEGISRADVIITSGGVSMGEKDYLKQVLDIDLHAQIHFGRVFMKPGLPTTFATLDIDGVRKIIFALPGNPVSAVVTCNLFVVPALRKMQGILDPRPTIIKARLSCDVKLDPRPEYHRCILTWHHQEPLPWAQSTGNQMSSRLMSMRSANGLLMLPPKTEQYVELHKGEVVDVMVIGRL | binds | binds | –
2 | endogenous collybistin (CB) of mouse brain (protein, UniProt Q3UTH8 1-516) MYDLITGDSIVSAEAVWDHVTMANRELAFKAGDVIKVLDASNKDWWWGQIDDEEGWFPASFVRLWVNQEDGVEEGPSDVQNGHLDPNSDCLCLGRPLQNRDQMRANVINEIMSTERHYIKHLKDICEGYLKQCRKRRDMFSDEQLKVIFGNIEDIYRFQMGFVRDLEKQYNNDDPHLSEIGPCFLEHQDGFWIYSEYCNNHLDACMELSKLMKDSRYQHFFEACRLLQQMIDIAIDGFLLTPVQKICKYPLQLAELLKYTAQDHSDYRYVAAALAVMRNVTQQINERKRRLENIDKIAQWQASVLDWEGEDILDRSSELIYTGEMAWIYQPYGRNQQRVFFLFDHQMVLCKKDLIRRDILYYKGRIDMDKYEVIDIEDGRDDDFNVSMKNAFKLHNKETEEVHLFFAKKLEEKIRWLRAFREERKMVQEDEKIGFEISENQKRQAAMTVRKASKQKGVNSARSVPPSYPPPQDPLNQGQYLVPDGIAQSQVFEFTEPKRSQSPFWQNFSRLTPFKK | binds weakly | binds | –
3 | GAL4AD-gephyrin (full-length human gephyrin fused to the GAL4 activation domain) (protein, UniProt Q9NQX3-2 1-769) MATEGMILTNHDHQIRVGVLTVSDSCFRNLAEDRSGINLKDLVQDPSLLGGTISAYKIVPDEIEEIKETLIDWCDEKELNLILTTGGTGFAPRDVTPEATKEVIEREAPGMALAMLMGSLNVTPLGMLSRPVCGIRGKTLIINLPGSKKGSQECFQFILPALPHAIDLLRDAIVKVKEVHDELEDLPSPPPPLSPPPTTSPHKQTEDKGVQCEEEEEEKKDSGVASTEDSSSSHITAAAIAAKKHPFYTSPAVVMAHGEQPIPGLINYSHHSTDERIPDSIISRGVQVLPRDTASLSTTPSESPRAQATSRLSTASCPTPKVQSRCSSKENILRASHSAVDITKVARRHRMSPFPLTSMDKAFITVLEMTPVLGTEIINYRDGMGRVLAQDVYAKDNLPPFPASVKDGYAVRAADGPGDRFIIGESQAGEQPTQTVMPGQVMRVTTGAPIPCGADAVVQVEDTELIRESDDGTEELEVRILVQARPGQDIRPIGHDIKRGECVLAKGTHMGPSEIGLLATVGVTEVEVNKFPVVAVMSTGNELLNPEDDLLPGKIRDSNRSTLLATIQEHGYPTINLGIVGDNPDDLLNALNEGISRADVIITSGGVSMGEKDYLKQVLDIDLHAQIHFGRVFMKPGLPTTFATLDIDGVRKIIFALPGNPVSAVVTCNLFVVPALRKMQGILDPRPTIIKARLSCDVKLDPRPEYHRCILTWHHQEPLPWAQSTGNQMSSRLMSMRSANGLLMLPPKTEQYVELHKGEVVDVMVIGRL | – | – | binding [3]: binds; binding [4]: binds
4 | Myc-CB (N-terminally Myc-tagged full-length human collybistin) (protein, UniProt O43307 1-516) MTLLITGDSIVSAEAVWDHVTMANRELAFKAGDVIKVLDASNKDWWWGQIDDEEGWFPASFVRLWVNQEDEVEEGPSDVQNGHLDPNSDCLCLGRPLQNRDQMRANVINEIMSTERHYIKHLKDICEGYLKQCRKRRDMFSDEQLKVIFGNIEDIYRFQMGFVRDLEKQYNNDDPHLSEIGPCFLEHQDGFWIYSEYCNNHLDACMELSKLMKDSRYQHFFEACRLLQQMIDIAIDGFLLTPVQKICKYPLQLAELLKYTAQDHSDYRYVAAALAVMRNVTQQINERKRRLENIDKIAQWQASVLDWEGEDILDRSSELIYTGEMAWIYQPYGRNQQRVFFLFDHQMVLCKKDLIRRDILYYKGRIDMDKYEVVDIEDGRDDDFNVSMKNAFKLHNKETEEIHLFFAKKLEEKIRWLRAFREERKMVQEDEKIGFEISENQKRQAAMTVRKVPKQKGVNSARSVPPSYPPPQDPLNHGQYLVPDGIAQSQVFEFTEPKRSQSPFWQNFSRLTPFKK | – | – | binding [5]: binds
5 | Myc-gephyrin (N-terminally Myc-tagged full-length human gephyrin) (protein, UniProt Q9NQX3-2 1-769) MATEGMILTNHDHQIRVGVLTVSDSCFRNLAEDRSGINLKDLVQDPSLLGGTISAYKIVPDEIEEIKETLIDWCDEKELNLILTTGGTGFAPRDVTPEATKEVIEREAPGMALAMLMGSLNVTPLGMLSRPVCGIRGKTLIINLPGSKKGSQECFQFILPALPHAIDLLRDAIVKVKEVHDELEDLPSPPPPLSPPPTTSPHKQTEDKGVQCEEEEEEKKDSGVASTEDSSSSHITAAAIAAKKHPFYTSPAVVMAHGEQPIPGLINYSHHSTDERIPDSIISRGVQVLPRDTASLSTTPSESPRAQATSRLSTASCPTPKVQSRCSSKENILRASHSAVDITKVARRHRMSPFPLTSMDKAFITVLEMTPVLGTEIINYRDGMGRVLAQDVYAKDNLPPFPASVKDGYAVRAADGPGDRFIIGESQAGEQPTQTVMPGQVMRVTTGAPIPCGADAVVQVEDTELIRESDDGTEELEVRILVQARPGQDIRPIGHDIKRGECVLAKGTHMGPSEIGLLATVGVTEVEVNKFPVVAVMSTGNELLNPEDDLLPGKIRDSNRSTLLATIQEHGYPTINLGIVGDNPDDLLNALNEGISRADVIITSGGVSMGEKDYLKQVLDIDLHAQIHFGRVFMKPGLPTTFATLDIDGVRKIIFALPGNPVSAVVTCNLFVVPALRKMQGILDPRPTIIKARLSCDVKLDPRPEYHRCILTWHHQEPLPWAQSTGNQMSSRLMSMRSANGLLMLPPKTEQYVELHKGEVVDVMVIGRL | – | – | binding [6]: binds

Reference: article PMC2955581
